Measurements reported in PubChem BioAssay AID1259425 (University of Nebraska Medical Center, 2018)
The deposit covers about 14,000 reagents; below is a part drawn at random. A reagent listed more than once was tested more than once; the source does not tell the runs apart. The record does not give: the time to read-out.

Test: 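Seek colon cancer weak points whose silencing resembles KSR1 loss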 (primary screen)
System: HCT116 human colon cancer cells
Reagents: siRNA pool against human genes, 50 nM siRNA
Measurement: 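mRNA of six signature genes measured together by branched-DNA assay after 50 nM siRNA pool, blank removed, divided by geometric mean of two housekeeping genes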
Reading the numbers: BNIP3L mRNA: higher = more BNIP3L transcript after knockdown; NDRG1 mRNA: higher = more NDRG1 transcript after knockdown; BNIP3 mRNA: higher = more BNIP3 transcript after knockdown; ALDOC mRNA: higher = more ALDOC transcript after knockdown; ACSL5 mRNA: higher = more ACSL5 transcript after knockdown

gene	BNIP3L mRNA, set 1	NDRG1 mRNA, set 1	BNIP3 mRNA, set 1	ALDOC mRNA, set 1	ACSL5 mRNA, set 1
ZNF347 (GeneID 84671)	0.0662	0.0734	0.404	0.00526	0.219
SH3TC1 (GeneID 54436)	0.159	0.35	0.264	0.0415	0.282
IBSP (GeneID 3381)	0.174	0.277	0.569	0.00113	0.475
C1orf159 (GeneID 54991)	0.119	0.274	0.29	0.0181	0.0877
RFC5 (GeneID 5985)	0.214	0.668	0.471	0.0593	0.421
GATA2 (GeneID 2624)	0.111	0.18	0.376	0.00727	0.297
KCNN1 (GeneID 3780)	0.0744	0.187	0.213	0.00294	0.0952
CYB5R1 (GeneID 51706)	0.149	0.198	0.509	0.0278	0.108
PRB4 (GeneID 5545)	0.107	0.247	0.473	0.0896	0.233
MCM4 (GeneID 4173)	0.0621	0.0494	0.18	0.0187	0.113
INPP5A (GeneID 3632)	0.0833	0.32	0.227	0.0182	0.132
EMC7 (GeneID 56851)	0.0895	0.119	0.0795	0.037	0.215
MAPK8IP2 (GeneID 23542)	0.199	0.218	0.38	0.00743	0.609
ADPRM (GeneID 56985)	0.0891	0.182	0.326	0.0434	0.185
DRG2 (GeneID 1819)	0.103	0.159	0.322	0.0134	0.262
MMGT1 (GeneID 93380)	0.178	0.197	0.304	0.00859	0.163
CCDC144A (GeneID 9720)	0.207	0.132	0.288	0.0378	0.129
KBTBD7 (GeneID 84078)	0.0778	0.37	0.383	0.0197	0.279
KBTBD7 (GeneID 84078)	0.157	0.203	0.384	0.0556	0.465
EIF1AX (GeneID 1964)	0.0625	0.429	0.324	0.0178	0.0392
SLC25A13 (GeneID 10165)	0.175	0.304	0.164	0.0402	0.219
PBX4 (GeneID 80714)	0.121	0.152	0.292	0.0202	0.164
B4GALT1 (GeneID 2683)	0.0533	0.16	0.34	0.0274	0.155
TRANK1 (GeneID 9881)	0.0563	0.0958	0.122	0.0214	0.169
NR2F6 (GeneID 2063)	0.23	0.606	0.441	0.187	0.114
KCNK2 (GeneID 3776)	0.112	0.175	0.269	0.0193	0.133
PGLYRP4 (GeneID 57115)	0.184	0.07	0.428	0.126	0.215
HMBS (GeneID 3145)	0.0705	0.186	0.267	0.0178	0.176
MOB4 (GeneID 25843)	0.149	0.314	0.515	0.0251	0.111
HHLA1 (GeneID 10086)	0.229	0.053	0.388	0.0304	0.163
PROX1 (GeneID 5629)	0.247	0.193	0.345	0.029	0.25
SHBG (GeneID 6462)	0.0992	0.165	0.447	0.0184	0.297
ETV5 (GeneID 2119)	0.0982	0.166	0.254	0.0262	0.15
FGF3 (GeneID 2248)	0.0577	0.119	0.258	0.0162	0.133
DIP2A (GeneID 23181)	0.226	0.188	0.444	0.05	0.213
SPTBN5 (GeneID 51332)	0.196	0.587	0.5	0.0332	0.268
GNA12 (GeneID 2768)	0.124	0.121	0.299	0.0103	0.172
CRELD1 (GeneID 78987)	0.19	0.253	0.354	0.0263	0.223
PDE3A (GeneID 5139)	0.0837	0.0687	0.299	0.0298	0.115
TBCB (GeneID 1155)	0.0898	0.0789	0.304	0.0229	0.126
DSG2 (GeneID 1829)	0.138	0.0658	0.395	0.0134	0.0451
GYS1 (GeneID 2997)	0.0849	0.0869	0.171	0.0161	0.161
NAGA (GeneID 4668)	0.151	0.185	0.393	0.0338	0.127
FKBP3 (GeneID 2287)	0.0541	0.132	0.253	0.0304	0.118
B3GNT9 (GeneID 84752)	0.439	0.413	0.017	0.0139	1.08
CCL8 (GeneID 6355)	0.0952	0.0927	0.223	0.0511	0.14
KCNA3 (GeneID 3738)	0.16	0.189	0.396	0.0214	0.108
CACNG7 (GeneID 59284)	0.12	0.214	0.115	0.0102	0.131
CBLL1 (GeneID 79872)	0.331	0.689	0.292	0.132	0.589
RTN2 (GeneID 6253)	0.0705	0.128	0.236	0.0167	0.214

Part of the list above, limited to “BNIP3 mRNA, set 1”.
PDE3A (GeneID 5139) = 0.299
TBCB (GeneID 1155) = 0.304
DSG2 (GeneID 1829) = 0.395
GYS1 (GeneID 2997) = 0.171
NAGA (GeneID 4668) = 0.393
